We go through 5 molecules from patent US20120065365A1, “Stable Radiopharmaceutical Compositions and Methods for Their Preparation” (BRACCO IMAGING S.P.A., priority 2003, published 2012).

Counter-ions that a name gives are not always drawn.

The data set is classed as physicochemical. The conditions noted are these: ^177Lu-C converted [reduced] to ^177Lu-B, 20 mg/ml reagent solution (2% ME) in citrate buffer, room temperature.

For `CSCC[C@H](N)C(=O)O` [L-Methionine], the “% Conversion in 1 day” value amounted to 0% and the “% Conversion in 3 days” value worked out at 0%.
`N[C@@H](CS)C(=O)O` [L-cysteine, L-cysteine hydrochloride monohydrate]: the “% Conversion in 1 day” value worked out at 5.6% and the “% Conversion in 3 days” value worked out at 12.8%.
The matching figures for `OCCS` [ME, Mercaptoethanol]: 9.7% and 17.1%.
Take `O[C@H](CS)[C@H](O)CS` (racemic) [DL-Dithiothreitol]: the “% Conversion in 1 day” value is reported as 14.1% and the “% Conversion in 3 days” value is recorded as 18.9%.
The corresponding values for `C[Se]CC[C@H](N)C(=O)O` [L-Selenomethionine] are 0% and 0%.
